Measured values published in PMC9834408, “The SPOC domain is a phosphoserine binding module that bridges transcription machinery with co- and post-transcriptional regulators” (Nature Communications, 2023).

By UniProt entry, the sequences of proteins in these tests, tags left out.
UniProt P51114: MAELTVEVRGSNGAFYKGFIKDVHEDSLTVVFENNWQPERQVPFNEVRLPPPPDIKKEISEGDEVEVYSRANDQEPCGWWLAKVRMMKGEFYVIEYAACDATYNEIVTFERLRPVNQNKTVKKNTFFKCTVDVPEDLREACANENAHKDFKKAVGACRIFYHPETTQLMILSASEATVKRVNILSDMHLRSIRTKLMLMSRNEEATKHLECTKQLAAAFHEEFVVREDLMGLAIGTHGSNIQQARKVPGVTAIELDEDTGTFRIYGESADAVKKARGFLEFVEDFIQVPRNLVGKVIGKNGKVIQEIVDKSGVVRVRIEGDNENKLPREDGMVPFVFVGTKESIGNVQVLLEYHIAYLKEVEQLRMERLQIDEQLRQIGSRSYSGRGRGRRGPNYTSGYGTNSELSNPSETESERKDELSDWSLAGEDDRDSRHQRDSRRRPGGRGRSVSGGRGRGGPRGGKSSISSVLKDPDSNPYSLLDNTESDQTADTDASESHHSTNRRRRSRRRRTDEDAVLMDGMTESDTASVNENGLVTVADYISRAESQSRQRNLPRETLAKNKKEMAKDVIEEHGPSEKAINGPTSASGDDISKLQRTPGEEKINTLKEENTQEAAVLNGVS
UniProt P51116: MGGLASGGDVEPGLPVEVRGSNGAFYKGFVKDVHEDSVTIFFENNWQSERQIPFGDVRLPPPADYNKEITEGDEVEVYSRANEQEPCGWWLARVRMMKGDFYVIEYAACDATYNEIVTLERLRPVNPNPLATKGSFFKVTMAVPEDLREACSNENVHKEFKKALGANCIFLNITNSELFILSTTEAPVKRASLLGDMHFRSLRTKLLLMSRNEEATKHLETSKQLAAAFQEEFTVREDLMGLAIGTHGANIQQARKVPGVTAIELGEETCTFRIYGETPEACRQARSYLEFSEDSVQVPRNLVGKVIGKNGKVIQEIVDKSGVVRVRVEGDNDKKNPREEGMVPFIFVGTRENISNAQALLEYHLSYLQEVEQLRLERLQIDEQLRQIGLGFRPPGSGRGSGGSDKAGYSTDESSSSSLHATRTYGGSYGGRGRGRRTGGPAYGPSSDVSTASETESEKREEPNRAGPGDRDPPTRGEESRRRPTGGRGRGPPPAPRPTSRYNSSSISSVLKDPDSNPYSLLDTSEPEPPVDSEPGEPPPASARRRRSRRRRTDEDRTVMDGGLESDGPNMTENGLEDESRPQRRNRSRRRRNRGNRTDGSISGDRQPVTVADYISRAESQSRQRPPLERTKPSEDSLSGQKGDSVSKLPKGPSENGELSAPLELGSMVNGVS
UniProt Q69YN4: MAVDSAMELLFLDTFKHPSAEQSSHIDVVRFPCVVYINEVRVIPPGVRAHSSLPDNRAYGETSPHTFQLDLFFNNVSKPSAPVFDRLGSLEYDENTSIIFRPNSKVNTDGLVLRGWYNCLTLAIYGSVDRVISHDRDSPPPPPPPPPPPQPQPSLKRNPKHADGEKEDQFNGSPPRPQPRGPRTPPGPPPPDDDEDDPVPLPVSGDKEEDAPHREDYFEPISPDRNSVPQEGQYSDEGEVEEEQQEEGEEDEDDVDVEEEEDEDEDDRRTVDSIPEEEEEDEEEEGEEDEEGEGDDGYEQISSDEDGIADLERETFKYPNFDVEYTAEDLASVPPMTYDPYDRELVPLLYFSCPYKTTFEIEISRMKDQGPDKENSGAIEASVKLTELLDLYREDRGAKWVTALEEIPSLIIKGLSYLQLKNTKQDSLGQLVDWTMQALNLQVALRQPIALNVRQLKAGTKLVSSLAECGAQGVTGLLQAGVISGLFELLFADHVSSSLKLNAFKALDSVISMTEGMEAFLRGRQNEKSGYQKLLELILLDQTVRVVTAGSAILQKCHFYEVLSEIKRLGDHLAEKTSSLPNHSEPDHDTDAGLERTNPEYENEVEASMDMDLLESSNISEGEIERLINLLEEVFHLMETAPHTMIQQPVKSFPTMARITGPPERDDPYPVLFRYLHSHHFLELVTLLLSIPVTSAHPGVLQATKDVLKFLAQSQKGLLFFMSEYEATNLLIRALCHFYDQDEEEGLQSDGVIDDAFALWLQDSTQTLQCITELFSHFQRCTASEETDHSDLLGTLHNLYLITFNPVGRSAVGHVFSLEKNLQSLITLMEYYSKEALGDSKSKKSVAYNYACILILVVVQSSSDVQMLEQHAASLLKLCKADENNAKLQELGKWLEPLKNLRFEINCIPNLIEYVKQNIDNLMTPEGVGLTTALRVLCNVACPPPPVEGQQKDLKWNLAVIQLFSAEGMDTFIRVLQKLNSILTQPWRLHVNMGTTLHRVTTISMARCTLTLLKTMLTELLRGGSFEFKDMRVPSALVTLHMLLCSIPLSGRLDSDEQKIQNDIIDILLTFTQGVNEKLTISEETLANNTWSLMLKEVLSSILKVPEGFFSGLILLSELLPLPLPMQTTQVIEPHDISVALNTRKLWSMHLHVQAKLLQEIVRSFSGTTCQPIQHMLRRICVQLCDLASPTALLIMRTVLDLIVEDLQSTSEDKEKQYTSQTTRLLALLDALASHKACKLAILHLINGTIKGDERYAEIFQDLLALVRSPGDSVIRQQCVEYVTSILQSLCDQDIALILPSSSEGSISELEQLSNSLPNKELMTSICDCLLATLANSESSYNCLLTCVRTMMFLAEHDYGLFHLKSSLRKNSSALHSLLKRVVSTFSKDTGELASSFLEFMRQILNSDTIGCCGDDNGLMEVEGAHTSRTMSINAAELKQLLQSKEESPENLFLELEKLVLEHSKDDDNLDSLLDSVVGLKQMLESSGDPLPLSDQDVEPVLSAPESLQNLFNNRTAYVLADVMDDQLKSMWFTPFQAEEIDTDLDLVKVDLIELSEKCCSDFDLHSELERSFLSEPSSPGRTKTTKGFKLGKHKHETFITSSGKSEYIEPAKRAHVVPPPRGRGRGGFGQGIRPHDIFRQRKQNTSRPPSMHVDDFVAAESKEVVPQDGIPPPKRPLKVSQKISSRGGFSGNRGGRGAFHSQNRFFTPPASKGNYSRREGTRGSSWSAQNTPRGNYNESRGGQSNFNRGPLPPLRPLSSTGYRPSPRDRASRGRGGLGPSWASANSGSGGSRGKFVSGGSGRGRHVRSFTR
UniProt Q5T200: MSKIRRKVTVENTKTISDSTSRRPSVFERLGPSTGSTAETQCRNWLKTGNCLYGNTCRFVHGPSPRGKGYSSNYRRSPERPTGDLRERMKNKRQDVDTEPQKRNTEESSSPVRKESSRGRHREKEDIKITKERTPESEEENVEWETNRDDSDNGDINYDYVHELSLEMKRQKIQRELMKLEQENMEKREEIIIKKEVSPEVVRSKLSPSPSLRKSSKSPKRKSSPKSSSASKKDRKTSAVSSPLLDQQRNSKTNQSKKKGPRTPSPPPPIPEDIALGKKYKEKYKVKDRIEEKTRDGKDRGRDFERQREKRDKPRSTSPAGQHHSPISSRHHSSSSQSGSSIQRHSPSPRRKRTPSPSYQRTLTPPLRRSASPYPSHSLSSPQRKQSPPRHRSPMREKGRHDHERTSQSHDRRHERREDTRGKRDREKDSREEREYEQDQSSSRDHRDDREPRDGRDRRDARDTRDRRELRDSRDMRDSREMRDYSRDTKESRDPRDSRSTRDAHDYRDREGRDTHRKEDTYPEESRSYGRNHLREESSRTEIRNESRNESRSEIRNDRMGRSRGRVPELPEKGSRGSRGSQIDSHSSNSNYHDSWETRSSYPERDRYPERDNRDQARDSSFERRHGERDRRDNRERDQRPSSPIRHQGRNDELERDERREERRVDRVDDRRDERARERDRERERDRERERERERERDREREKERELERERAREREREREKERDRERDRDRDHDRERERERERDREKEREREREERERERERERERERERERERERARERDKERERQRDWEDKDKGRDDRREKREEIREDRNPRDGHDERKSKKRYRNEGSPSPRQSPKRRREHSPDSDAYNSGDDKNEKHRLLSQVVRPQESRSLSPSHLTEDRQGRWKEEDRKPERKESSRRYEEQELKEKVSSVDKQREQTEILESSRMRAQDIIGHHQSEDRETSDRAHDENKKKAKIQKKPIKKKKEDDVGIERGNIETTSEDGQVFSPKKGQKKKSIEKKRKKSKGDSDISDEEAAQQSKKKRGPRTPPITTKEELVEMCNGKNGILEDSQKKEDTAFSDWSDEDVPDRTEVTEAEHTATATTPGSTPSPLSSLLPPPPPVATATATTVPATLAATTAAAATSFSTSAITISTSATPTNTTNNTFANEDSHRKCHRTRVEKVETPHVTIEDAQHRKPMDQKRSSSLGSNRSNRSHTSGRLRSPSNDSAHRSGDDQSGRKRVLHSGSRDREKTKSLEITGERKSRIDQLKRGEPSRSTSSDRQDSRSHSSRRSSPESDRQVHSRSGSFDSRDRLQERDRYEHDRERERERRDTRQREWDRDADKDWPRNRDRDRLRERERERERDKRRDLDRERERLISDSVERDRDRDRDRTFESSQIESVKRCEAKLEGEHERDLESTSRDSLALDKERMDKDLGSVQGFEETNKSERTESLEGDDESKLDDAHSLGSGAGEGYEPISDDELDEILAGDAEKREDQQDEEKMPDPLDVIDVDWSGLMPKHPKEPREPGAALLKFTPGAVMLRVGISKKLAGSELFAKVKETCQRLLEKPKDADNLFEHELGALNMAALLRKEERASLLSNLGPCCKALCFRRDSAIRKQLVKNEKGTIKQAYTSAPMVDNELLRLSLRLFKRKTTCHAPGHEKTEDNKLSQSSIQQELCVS
UniProt P12004: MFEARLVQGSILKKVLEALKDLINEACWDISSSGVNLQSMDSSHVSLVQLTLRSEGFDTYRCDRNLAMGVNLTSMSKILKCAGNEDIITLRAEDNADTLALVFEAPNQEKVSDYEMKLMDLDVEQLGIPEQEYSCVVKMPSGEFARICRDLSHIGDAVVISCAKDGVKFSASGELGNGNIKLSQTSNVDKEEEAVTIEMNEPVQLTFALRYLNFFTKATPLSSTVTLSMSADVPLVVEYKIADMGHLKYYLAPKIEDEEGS

Legend:
[1] = biological target: SHARP-GFP (human (endogenous in HEK293T)) (UniProt Q96T58); assay: affinity purification with mass spectrometry; anti-GFP immunoprecipitation (beads with cross-linked anti-GFP nanobody) from HEK293T cell lines expressing endogenously GFP-tagged SHARP WT or ΔSPOC; WT cells as control; three replicates
[2] = biological target: 3×FLAG-NLS-RBM15-SPOC (human) (UniProt Q96T37); assay: affinity purification with mass spectrometry; anti-FLAG M2 beads; 3×FLAG-NLS-SPOC domains expressed in HEK293T; lysis in 50 mM Tris-Cl pH 8, 150 mM NaCl, 0.1% Triton with benzonase; empty vector as control; three replicates

| Substance | binding [1] | binding [2] |
| --- | --- | --- |
| FXR1 (from UniProt P51114 1-621) | binds | – |
| FXR2 (from UniProt P51116 1-673) | binds | – |
| VIRMA/KIAA1429 (from UniProt Q69YN4 1-1812) | – | binds |
| ZC3H13 (from UniProt Q5T200 1-1668) | – | binds |
| PCNA (from UniProt P12004 1-261) | – | binds |

These are yes or no findings as the source states them, for the method shown. Binding seen in cells or lysates may run through a third protein. These calls come from enrichment with a bait or labelling near it, and not all partners need be listed. For some assays here: Tags and fused reporters may be left off the sequences shown.
